doi:10.1101/2021.07.16.452612
Read-outs that look alike come from different tables or passages of the source. No constants are given. Whether binding was seen depends on the method and setting. Some results given as binding are weak or reduced against the parent protein; the word gives no strength. For some assays here: Where a sequence is shown, tags or fusion partners need not be part of it.

The chains behind the UniProt entries cited, without tags or fusion partners.
UniProt P26039: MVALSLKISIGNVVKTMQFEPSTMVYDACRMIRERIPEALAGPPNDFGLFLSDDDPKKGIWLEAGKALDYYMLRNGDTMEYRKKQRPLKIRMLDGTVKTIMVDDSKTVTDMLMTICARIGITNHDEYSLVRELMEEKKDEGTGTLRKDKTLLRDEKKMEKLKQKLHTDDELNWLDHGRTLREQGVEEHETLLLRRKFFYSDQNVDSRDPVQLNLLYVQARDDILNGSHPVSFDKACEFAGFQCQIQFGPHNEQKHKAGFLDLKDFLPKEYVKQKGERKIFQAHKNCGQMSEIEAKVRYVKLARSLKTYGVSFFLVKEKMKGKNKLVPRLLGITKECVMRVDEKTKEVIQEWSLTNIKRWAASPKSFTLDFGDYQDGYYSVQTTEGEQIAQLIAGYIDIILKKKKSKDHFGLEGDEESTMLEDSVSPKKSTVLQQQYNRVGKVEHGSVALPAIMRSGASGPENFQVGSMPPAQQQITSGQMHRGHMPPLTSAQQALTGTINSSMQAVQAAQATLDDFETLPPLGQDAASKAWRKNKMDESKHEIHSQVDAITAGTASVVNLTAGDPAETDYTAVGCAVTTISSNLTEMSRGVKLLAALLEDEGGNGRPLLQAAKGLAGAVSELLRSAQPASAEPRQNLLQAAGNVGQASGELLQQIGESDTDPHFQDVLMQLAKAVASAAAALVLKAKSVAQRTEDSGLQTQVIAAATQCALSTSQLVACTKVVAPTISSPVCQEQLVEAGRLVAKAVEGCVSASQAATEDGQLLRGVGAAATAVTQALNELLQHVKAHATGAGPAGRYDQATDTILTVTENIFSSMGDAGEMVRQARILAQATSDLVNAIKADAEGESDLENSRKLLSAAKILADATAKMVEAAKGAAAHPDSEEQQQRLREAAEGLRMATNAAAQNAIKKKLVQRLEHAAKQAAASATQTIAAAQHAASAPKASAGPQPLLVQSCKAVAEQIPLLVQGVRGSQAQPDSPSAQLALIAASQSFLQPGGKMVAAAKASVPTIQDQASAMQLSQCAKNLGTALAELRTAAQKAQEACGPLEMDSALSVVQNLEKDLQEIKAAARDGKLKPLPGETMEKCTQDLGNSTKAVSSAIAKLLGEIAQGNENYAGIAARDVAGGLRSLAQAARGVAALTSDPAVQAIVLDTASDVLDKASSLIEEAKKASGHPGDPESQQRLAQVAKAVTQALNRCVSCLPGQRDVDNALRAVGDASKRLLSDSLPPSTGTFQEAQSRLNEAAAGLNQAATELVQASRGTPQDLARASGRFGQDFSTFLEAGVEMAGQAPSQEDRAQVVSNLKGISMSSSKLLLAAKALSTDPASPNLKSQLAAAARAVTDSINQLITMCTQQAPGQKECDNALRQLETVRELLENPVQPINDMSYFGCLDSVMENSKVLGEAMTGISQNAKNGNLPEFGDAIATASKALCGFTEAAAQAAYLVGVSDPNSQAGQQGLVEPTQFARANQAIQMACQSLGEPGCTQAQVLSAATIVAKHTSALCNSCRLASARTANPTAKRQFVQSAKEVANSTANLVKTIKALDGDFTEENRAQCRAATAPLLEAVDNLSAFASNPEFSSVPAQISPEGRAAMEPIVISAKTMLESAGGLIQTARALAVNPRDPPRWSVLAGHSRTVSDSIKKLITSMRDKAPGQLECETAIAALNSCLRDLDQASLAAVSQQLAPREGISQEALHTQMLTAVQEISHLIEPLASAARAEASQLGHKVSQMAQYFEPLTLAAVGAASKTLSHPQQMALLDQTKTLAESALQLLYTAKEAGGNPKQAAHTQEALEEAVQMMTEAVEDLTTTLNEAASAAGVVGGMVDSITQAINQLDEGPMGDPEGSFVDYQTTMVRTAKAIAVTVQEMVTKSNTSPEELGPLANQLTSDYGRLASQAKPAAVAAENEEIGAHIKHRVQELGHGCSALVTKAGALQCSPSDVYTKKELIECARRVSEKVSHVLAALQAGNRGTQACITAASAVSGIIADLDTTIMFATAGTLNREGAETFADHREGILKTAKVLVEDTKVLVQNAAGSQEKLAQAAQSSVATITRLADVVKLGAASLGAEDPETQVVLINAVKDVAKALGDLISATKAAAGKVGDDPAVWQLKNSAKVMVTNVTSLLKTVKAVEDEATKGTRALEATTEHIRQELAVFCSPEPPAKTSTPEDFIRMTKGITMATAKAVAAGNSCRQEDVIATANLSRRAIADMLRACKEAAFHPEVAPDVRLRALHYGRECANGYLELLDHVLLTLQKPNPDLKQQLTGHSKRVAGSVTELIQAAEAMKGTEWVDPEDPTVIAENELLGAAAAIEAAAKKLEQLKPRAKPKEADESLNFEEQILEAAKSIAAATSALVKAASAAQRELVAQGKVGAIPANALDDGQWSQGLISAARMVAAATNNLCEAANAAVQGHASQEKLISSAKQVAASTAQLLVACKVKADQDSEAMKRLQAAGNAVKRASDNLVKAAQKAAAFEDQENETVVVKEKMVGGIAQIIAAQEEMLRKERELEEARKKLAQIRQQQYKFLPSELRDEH
UniProt Q13418: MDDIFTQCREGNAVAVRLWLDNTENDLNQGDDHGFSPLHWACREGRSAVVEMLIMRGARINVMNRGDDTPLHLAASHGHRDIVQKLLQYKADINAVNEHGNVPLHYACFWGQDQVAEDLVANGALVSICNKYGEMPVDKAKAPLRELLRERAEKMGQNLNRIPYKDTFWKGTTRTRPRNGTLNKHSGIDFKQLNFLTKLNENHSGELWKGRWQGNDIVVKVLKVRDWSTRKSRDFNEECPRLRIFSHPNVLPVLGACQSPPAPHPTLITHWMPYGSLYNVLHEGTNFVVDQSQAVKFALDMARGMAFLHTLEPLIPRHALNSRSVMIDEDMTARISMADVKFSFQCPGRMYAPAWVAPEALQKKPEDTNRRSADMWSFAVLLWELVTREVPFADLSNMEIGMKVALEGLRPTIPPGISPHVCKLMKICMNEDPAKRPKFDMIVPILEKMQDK
UniProt Q9Y4G6: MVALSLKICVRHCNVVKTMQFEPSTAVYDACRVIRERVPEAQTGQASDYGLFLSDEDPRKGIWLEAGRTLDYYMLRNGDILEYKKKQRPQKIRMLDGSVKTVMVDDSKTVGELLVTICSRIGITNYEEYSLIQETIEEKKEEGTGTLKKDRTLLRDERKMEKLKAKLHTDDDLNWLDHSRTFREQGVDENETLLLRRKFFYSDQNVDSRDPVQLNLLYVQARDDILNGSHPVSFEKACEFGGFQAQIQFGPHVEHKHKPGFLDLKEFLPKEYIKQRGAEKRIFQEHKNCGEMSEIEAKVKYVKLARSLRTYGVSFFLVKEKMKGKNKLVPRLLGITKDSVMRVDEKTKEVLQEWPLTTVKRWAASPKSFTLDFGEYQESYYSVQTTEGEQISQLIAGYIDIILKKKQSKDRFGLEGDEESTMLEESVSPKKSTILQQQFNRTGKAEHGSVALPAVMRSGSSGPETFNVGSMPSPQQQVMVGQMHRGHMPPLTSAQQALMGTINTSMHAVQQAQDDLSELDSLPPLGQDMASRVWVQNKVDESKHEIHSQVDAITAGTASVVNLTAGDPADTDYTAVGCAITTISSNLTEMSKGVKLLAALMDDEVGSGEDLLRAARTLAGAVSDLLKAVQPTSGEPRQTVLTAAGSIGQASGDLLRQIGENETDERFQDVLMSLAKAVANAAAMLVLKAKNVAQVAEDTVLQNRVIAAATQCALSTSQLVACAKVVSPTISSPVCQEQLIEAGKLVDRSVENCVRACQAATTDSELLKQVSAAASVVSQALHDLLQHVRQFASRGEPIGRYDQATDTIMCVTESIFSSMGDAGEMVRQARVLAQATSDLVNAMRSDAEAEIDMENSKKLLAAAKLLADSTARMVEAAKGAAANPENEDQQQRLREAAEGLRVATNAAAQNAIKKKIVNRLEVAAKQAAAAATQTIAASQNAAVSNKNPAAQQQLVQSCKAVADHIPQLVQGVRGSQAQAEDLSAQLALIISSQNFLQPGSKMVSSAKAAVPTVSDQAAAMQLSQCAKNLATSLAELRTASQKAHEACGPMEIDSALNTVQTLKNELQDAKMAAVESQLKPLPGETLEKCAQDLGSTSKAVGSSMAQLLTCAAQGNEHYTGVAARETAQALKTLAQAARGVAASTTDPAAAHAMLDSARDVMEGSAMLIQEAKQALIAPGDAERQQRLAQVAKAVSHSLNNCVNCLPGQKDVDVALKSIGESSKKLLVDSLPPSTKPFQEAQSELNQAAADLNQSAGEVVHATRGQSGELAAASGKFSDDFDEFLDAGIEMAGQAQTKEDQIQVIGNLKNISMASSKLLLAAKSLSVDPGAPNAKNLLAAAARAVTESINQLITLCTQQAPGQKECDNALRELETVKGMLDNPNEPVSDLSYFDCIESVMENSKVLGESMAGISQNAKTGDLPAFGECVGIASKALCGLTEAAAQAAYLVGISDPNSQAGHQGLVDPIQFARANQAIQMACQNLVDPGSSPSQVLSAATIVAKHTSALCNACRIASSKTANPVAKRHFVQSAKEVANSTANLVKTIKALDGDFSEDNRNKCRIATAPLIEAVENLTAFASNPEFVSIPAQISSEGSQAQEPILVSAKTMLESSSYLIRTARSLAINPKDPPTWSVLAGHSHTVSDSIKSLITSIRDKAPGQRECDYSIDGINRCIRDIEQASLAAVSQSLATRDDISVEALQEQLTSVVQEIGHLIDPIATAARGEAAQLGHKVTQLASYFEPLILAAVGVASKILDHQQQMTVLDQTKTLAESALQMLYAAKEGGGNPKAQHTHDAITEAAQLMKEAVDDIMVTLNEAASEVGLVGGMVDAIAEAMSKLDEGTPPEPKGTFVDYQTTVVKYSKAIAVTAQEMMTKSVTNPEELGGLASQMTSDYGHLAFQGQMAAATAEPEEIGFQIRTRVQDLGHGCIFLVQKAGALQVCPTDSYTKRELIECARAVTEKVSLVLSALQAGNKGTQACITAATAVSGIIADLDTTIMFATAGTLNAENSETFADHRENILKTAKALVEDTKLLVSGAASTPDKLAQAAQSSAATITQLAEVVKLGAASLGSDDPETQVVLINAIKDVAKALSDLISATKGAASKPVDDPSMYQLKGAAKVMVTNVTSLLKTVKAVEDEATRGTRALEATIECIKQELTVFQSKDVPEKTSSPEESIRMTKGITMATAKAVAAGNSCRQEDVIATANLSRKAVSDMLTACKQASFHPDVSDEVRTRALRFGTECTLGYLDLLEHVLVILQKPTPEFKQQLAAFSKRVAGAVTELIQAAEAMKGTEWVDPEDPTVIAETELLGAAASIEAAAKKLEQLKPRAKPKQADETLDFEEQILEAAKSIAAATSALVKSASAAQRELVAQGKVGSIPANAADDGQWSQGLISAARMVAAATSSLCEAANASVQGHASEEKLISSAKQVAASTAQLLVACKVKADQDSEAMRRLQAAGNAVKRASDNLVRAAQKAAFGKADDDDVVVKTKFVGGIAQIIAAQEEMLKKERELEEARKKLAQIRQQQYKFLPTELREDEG
UniProt Q8VI36: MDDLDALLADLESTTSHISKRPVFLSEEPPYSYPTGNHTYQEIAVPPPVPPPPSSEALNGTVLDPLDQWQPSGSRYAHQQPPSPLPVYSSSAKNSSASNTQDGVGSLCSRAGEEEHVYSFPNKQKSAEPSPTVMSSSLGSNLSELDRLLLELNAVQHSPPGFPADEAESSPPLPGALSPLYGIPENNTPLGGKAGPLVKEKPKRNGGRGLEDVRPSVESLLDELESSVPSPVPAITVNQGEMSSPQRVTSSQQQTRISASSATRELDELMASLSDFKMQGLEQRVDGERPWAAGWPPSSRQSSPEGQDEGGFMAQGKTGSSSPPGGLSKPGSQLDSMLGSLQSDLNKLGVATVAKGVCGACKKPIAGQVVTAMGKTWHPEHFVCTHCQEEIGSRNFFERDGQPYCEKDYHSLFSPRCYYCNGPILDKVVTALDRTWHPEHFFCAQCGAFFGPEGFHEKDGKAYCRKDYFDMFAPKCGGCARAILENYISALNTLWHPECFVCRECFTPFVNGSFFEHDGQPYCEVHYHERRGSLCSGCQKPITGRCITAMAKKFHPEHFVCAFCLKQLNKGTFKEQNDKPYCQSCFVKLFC

T1: mCh-tensin2-cBAK (human) (UniProt Q63HR2)
T1 sequence: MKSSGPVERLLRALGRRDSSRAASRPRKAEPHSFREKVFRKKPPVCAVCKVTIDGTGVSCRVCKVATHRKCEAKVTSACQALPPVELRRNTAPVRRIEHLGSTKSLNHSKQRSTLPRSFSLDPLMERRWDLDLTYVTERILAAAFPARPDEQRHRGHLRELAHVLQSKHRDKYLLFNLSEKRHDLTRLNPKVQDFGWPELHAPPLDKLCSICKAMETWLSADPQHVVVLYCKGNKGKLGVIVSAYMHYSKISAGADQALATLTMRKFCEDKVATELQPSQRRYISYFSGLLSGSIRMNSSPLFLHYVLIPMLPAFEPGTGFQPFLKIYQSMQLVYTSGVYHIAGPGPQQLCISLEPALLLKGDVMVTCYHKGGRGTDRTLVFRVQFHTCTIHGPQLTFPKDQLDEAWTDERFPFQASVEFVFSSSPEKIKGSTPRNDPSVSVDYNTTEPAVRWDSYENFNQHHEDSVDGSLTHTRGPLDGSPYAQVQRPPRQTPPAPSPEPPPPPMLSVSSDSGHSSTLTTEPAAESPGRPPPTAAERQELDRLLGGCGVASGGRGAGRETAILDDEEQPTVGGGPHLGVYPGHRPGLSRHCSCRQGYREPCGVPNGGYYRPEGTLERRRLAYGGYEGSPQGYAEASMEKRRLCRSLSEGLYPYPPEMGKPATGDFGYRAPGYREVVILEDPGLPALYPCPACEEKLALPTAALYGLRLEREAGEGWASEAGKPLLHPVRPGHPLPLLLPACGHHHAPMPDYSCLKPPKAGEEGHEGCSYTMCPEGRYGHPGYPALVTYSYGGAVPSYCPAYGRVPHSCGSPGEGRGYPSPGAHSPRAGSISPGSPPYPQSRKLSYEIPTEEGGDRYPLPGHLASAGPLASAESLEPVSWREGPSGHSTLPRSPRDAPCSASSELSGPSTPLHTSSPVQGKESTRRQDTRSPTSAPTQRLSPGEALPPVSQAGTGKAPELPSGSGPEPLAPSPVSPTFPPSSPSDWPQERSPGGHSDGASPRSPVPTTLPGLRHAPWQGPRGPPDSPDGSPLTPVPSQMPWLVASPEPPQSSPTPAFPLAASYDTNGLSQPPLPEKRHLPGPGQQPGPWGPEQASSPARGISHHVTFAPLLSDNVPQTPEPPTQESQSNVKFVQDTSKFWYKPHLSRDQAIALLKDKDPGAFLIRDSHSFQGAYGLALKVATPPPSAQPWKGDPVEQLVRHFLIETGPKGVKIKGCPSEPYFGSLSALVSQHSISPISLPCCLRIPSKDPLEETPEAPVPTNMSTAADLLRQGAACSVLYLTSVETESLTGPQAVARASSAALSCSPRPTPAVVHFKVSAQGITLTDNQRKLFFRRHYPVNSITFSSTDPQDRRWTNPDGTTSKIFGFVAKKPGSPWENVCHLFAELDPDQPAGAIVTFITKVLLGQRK

T2: mCh-tensin3-FL-cBAK (human) (UniProt Q68CZ2)
T2 sequence: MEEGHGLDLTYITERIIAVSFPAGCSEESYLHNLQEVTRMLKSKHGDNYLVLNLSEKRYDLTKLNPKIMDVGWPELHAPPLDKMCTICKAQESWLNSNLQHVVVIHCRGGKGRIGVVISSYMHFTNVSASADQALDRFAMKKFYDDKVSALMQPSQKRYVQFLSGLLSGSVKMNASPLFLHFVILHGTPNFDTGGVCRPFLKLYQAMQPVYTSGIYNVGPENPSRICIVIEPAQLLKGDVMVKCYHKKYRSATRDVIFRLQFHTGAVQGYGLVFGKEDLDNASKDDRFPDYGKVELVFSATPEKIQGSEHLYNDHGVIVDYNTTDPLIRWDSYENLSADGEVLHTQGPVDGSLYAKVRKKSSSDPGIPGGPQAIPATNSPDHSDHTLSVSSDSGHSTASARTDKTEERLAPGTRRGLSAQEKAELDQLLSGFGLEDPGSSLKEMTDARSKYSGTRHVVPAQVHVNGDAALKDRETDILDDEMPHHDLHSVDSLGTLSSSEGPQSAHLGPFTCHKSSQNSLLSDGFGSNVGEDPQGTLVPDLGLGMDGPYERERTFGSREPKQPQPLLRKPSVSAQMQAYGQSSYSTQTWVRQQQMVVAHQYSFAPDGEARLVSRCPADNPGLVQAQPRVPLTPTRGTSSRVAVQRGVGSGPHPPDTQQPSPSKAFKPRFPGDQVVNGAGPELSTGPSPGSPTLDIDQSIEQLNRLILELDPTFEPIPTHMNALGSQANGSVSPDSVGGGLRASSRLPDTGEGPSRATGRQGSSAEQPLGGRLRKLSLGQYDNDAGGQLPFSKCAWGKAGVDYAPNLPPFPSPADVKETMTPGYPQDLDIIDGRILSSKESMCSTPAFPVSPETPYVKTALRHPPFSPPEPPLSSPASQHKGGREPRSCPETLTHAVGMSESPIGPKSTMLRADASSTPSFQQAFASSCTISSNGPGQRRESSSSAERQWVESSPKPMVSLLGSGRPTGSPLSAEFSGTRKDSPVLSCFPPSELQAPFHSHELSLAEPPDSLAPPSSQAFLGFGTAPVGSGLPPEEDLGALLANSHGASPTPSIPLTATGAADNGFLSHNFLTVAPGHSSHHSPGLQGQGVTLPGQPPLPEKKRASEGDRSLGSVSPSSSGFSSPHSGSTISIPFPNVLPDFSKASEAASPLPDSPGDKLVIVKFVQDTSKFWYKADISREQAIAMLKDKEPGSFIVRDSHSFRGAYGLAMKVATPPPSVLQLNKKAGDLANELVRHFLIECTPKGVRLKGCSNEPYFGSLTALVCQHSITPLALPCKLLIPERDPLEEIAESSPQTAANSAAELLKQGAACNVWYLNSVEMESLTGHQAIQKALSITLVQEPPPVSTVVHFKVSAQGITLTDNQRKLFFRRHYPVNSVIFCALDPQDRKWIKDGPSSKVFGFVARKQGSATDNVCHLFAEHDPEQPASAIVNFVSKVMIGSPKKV

B1: GFP-KANK2 (protein, UniProt Q63ZY3 1-851)
chain: MAQVLHVPAPFPGTPGPASPPAFPAKDPDPPYSVETPYGYRLDLDFLKYVDDIEKGHTLRRVAVQRRPRLSSLPRGPGSWWTSTESLCSNASGDSRHSAYSYCGRGFYPQYGALETRGGFNPRVERTLLDARRRLEDQAATPTGLGSLTPSAAGSTASLVGVGLPPPTPRSSGLSTPVPPSAGHLAHVREQMAGALRKLRQLEEQVKLIPVLQVKLSVLQEEKRQLTVQLKSQKFLGHPTAGRGRSELCLDLPDPPEDPVALETRSVGTWVRERDLGMPDGEAALAAKVAVLETQLKKALQELQAAQARQADPQPQAWPPPDSPVRVDTVRVVEGPREVEVVASTAAGAPAQRAQSLEPYGTGLRALAMPGRPESPPVFRSQEVVETMCPVPAAATSNVHMVKKISITERSCDGAAGLPEVPAESSSSPPGSEVASLTQPEKSTGRVPTQEPTHREPTRQAASQESEEAGGTGGPPAGVRSIMKRKEEVADPTAHRRSLQFVGVNGGYESSSEDSSTAENISDNDSTENEAPEPRERVPSVAEAPQLRPAGTAAAKTSRQECQLSRESQHIPTAEGASGSNTEEEIRMELSPDLISACLALEKYLDNPNALTERELKVAYTTVLQEWLRLACRSDAHPELVRRHLVTFRAMSARLLDYVVNIADSNGNTALHYSVSHANFPVVQQLLDSGVCKVDKQNRAGYSPIMLTALATLKTQDDIETVLQLFRLGNINAKASQAGQTALMLAVSHGRVDVVKALLACEADVNVQDDDGSTALMCACEHGHKEIAGLLLAVPSCDISLTDRDGSTALMVALDAGQSEIASMLYSRMNIKCSFAPMSDDESPTSSSAEE
B2: GFP-tensin3-FLΔH1 (protein, UniProt Q68CZ2)
chain: MEEGHGLDLTYITERIIAVSFPAGCSEESYLHNLQEVTRMLKSKHGDNYLVLNLSEKRYDLTKLNPKIMDVGWPELHAPPLDKMCTICKAQESWLNSNLQHVVVIHCRGGKGRIGVVISSYMHFTNVSASADQALDRFAMKKFYDDKVSALMQPSQKRYVQFLSGLLSGSVKMNASPLFLHFVILHGTPNFDTGGVCRPFLKLYQAMQPVYTSGIYNVGPENPSRICIVIEPAQLLKGDVMVKCYHKKYRSATRDVIFRLQFHTGAVQGYGLVFGKEDLDNASKDDRFPDYGKVELVFSATPEKIQGSEHLYNDHGVIVDYNTTDPLIRWDSYENLSADGEVLHTQGPVDGSLYAKVRKKSSSDPGIPGGPQAIPATNSPDHSDHTLSVSSDSGHSTASARTDKTEERLAPGTRRGLSAQEKAELDQLLSGFGLEDPGSSLKEMTDARSKYSGTRHVVPAQVHVNGDAALKDRETDILDDEMPHHDLHSVDSLGTLSSSEGPQSAHLGPFTCHKSSQNSLLSDGFGSNVGEDPQGTLVPDLGLGMDGPYERERTFGSREPKQPQPLLRKPSVSAQMQAYGQSSYSTQTWVRQQQMVVAHQYSFAPDGEARLVSRCPADNPGLVQAQPRVPLTPTRGTSSRVAVQRGVGSGPHPPDTQQPSPSKAFKPRFPGDQVVNGAGPELSTGPSPGPTFEPIPTHMNALGSQANGSVSPDSVGGGLRASSRLPDTGEGPSRATGRQGSSAEQPLGGRLRKLSLGQYDNDAGGQLPFSKCAWGKAGVDYAPNLPPFPSPADVKETMTPGYPQDLDIIDGRILSSKESMCSTPAFPVSPETPYVKTALRHPPFSPPEPPLSSPASQHKGGREPRSCPETLTHAVGMSESPIGPKSTMLRADASSTPSFQQAFASSCTISSNGPGQRRESSSSAERQWVESSPKPMVSLLGSGRPTGSPLSAEFSGTRKDSPVLSCFPPSELQAPFHSHELSLAEPPDSLAPPSSQAFLGFGTAPVGSGLPPEEDLGALLANSHGASPTPSIPLTATGAADNGFLSHNFLTVAPGHSSHHSPGLQGQGVTLPGQPPLPEKKRASEGDRSLGSVSPSSSGFSSPHSGSTISIPFPNVLPDFSKASEAASPLPDSPGDKLVIVKFVQDTSKFWYKADISREQAIAMLKDKEPGSFIVRDSHSFRGAYGLAMKVATPPPSVLQLNKKAGDLANELVRHFLIECTPKGVRLKGCSNEPYFGSLTALVCQHSITPLALPCKLLIPERDPLEEIAESSPQTAANSAAELLKQGAACNVWYLNSVEMESLTGHQAIQKALSITLVQEPPPVSTVVHFKVSAQGITLTDNQRKLFFRRHYPVNSVIFCALDPQDRKWIKDGPSSKVFGFVARKQGSATDNVCHLFAEHDPEQPASAIVNFVSKVMIGSPKKV

What was measured:
Experiment in all cases: mitochondrial targeting and recruitment assay
[1] = molecular target: T1, mCh-tensin2-cBAK (human)
[2] = molecular target: T2, mCh-tensin3-FL-cBAK (human)
[3] = molecular target: T2, mCh-tensin3-FL-cBAK (human); remark: listed apart in the source
[4] = molecular target: mCh-talinFL-cBAK (UniProt P26039)

Row | Molecule | binding [1] | binding [2] | binding [3] | binding [4]
1 | GFP-FAK (from UniProt Q05397 1-1052) | no binding | binds |  | 
2 | GFP-ILK (from UniProt Q13418 1-452) | binds | binds |  | 
3 | GFP-paxillin (from UniProt P49023 1-591) | binds | binds |  | 
4 | GFP-talin1 (from UniProt P26039 1-2541) | no binding | binds |  | 
5 | GFP-talin2 (from UniProt Q9Y4G6 1-2542) | no binding | binds |  | 
6 | active β1 integrin (9EG7 staining), endogenous (from UniProt P09055 21-798) (receptor) |  | no binding |  | 
7 | endogenous paxillin (from UniProt Q8VI36 1-591) |  | binds |  | 
8 | endogenous talin1 (from UniProt P26039 1-2541) |  | binds | binds | 
9 | B1 | no binding | binds |  | 
10 | B2 |  |  |  | no binding
